The record followed here is the supplement of paper PMC10849652.

Chains of the proteins cited; added tags and fusions are not shown. Lines headed by an entry give the natural chain unless they say otherwise; changes in a name come on top.
UniProt Q14566: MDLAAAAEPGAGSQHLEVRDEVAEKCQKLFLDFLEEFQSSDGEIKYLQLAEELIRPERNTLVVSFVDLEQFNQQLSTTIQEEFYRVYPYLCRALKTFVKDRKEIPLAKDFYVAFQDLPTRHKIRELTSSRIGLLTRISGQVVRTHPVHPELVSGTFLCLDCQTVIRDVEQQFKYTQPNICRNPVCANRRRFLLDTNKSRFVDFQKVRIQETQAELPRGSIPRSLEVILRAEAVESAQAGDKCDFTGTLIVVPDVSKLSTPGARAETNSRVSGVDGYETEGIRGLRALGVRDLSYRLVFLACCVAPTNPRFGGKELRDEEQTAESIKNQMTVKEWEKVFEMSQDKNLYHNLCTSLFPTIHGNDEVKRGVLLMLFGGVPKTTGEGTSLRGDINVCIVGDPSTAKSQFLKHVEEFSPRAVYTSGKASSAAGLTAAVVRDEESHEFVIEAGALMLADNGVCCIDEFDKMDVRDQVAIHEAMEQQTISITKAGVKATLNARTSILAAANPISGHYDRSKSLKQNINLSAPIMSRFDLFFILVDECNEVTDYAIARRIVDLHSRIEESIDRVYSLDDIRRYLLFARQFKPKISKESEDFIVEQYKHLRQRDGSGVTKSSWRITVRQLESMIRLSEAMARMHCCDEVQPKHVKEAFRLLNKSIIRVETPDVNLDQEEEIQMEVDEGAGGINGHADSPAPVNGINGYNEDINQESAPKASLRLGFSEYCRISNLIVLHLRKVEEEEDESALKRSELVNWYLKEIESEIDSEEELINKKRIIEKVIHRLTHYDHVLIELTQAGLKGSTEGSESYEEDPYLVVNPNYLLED
UniProt Q5TF39: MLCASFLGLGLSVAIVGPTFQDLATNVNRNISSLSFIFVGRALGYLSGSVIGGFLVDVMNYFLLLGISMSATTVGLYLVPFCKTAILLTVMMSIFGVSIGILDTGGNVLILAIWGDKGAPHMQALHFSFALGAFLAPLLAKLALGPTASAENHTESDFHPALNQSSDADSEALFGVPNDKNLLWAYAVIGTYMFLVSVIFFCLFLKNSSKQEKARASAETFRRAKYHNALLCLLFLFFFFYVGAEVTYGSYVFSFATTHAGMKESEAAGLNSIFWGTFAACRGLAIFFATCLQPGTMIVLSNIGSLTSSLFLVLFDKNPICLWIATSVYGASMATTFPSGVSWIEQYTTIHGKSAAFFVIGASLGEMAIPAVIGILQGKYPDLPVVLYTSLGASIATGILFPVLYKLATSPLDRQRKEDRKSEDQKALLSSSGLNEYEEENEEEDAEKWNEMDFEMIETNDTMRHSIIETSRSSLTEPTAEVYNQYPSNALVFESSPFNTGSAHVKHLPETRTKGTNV
UniProt Q96IZ6: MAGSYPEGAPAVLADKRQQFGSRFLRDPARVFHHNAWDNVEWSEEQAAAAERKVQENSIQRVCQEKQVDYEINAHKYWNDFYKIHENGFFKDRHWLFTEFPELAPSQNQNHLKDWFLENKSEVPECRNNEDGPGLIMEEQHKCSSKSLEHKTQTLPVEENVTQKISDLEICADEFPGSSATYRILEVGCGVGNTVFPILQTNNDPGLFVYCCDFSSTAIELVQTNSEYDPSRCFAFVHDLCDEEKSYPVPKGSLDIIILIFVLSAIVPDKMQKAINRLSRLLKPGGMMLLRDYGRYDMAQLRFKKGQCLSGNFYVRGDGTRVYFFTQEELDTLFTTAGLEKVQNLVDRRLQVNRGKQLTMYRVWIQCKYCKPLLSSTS
UniProt O95140: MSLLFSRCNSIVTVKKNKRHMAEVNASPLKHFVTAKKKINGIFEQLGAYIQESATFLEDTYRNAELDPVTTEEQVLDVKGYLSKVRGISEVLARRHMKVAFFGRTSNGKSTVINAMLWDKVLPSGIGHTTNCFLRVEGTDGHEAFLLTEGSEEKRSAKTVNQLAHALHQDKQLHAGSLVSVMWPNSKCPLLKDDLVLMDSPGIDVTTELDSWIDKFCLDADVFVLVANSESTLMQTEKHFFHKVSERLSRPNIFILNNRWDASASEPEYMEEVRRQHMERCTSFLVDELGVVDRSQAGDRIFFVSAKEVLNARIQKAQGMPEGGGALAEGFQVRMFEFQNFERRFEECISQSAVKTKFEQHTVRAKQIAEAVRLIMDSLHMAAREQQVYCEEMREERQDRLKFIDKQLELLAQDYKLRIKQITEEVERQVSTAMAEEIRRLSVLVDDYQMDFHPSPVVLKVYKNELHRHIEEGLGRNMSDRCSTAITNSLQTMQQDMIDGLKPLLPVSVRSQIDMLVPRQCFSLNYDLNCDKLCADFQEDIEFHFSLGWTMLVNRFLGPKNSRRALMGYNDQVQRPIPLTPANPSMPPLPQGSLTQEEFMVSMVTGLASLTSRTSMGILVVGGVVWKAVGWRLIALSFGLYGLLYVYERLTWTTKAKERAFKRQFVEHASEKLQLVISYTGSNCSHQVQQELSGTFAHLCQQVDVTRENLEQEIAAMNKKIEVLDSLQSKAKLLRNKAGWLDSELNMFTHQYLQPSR
UniProt Q86W50: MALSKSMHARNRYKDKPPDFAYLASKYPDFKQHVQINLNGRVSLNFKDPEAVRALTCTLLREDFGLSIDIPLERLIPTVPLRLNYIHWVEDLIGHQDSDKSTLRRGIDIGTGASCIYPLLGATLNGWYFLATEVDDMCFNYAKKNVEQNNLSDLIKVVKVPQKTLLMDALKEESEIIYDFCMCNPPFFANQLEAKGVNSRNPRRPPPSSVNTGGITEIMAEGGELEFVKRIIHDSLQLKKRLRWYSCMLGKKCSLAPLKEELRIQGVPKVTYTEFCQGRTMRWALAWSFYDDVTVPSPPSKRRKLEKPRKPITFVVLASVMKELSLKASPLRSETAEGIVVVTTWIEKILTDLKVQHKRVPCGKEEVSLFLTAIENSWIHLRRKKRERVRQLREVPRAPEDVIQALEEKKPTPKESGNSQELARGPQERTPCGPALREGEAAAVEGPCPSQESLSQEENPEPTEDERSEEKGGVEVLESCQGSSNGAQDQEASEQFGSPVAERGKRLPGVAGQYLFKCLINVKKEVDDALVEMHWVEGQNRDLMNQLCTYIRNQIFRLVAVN
UniProt Q96RN5: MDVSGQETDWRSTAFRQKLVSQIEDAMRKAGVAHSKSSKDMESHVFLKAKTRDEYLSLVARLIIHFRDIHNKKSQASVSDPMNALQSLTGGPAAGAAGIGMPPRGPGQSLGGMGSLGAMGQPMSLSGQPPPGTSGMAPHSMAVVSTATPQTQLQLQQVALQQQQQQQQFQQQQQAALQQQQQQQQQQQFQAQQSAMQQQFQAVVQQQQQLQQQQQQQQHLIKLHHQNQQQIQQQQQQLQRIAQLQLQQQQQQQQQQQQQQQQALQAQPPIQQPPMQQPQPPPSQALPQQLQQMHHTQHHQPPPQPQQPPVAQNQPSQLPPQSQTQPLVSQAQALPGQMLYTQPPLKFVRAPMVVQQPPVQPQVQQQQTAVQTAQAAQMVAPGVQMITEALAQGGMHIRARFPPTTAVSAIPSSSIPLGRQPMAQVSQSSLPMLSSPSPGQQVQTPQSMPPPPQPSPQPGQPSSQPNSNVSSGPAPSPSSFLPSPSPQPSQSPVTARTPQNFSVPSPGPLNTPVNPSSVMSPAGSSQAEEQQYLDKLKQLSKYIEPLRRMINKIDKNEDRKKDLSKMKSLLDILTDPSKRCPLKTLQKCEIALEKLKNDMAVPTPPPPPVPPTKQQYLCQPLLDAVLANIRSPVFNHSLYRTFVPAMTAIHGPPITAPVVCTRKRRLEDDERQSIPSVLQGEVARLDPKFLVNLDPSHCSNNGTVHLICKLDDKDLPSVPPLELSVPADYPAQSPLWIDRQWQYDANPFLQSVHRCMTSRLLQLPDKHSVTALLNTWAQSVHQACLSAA
UniProt Q16798: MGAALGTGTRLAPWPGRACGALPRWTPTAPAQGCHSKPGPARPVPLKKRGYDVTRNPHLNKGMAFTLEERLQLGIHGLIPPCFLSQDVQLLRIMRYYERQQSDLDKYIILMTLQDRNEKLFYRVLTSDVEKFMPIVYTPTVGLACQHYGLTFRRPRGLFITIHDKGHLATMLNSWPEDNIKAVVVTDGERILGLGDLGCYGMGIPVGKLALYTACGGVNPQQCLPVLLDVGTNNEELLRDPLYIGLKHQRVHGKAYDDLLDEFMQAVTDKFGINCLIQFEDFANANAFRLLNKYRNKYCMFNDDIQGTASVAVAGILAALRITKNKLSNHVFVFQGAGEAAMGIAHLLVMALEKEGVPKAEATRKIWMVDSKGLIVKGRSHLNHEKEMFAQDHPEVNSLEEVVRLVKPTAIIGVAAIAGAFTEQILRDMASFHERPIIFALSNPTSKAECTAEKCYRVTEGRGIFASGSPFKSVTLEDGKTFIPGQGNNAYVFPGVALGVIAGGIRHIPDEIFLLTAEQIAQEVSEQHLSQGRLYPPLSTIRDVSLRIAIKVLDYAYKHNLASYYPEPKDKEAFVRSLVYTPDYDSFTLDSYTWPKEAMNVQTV
UniProt P51608, whole entry, looked up: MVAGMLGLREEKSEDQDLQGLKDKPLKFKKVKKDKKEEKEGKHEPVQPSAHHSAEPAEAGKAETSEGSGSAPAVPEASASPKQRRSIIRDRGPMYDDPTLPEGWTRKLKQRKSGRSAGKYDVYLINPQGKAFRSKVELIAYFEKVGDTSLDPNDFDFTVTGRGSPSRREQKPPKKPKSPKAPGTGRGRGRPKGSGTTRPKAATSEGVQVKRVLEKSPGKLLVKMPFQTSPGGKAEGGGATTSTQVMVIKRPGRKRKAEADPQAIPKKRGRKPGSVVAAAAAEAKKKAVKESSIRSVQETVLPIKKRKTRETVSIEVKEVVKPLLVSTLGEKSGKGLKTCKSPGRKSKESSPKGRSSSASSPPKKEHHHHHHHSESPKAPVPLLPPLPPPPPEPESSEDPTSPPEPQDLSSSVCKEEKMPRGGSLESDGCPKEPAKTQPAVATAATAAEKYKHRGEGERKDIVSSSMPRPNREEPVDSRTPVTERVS
UniProt Q16626: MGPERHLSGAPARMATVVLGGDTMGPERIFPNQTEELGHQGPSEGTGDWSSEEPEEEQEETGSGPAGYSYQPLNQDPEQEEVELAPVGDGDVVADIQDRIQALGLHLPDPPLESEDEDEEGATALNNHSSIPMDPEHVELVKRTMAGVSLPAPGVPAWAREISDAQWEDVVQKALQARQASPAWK
UniProt P55081: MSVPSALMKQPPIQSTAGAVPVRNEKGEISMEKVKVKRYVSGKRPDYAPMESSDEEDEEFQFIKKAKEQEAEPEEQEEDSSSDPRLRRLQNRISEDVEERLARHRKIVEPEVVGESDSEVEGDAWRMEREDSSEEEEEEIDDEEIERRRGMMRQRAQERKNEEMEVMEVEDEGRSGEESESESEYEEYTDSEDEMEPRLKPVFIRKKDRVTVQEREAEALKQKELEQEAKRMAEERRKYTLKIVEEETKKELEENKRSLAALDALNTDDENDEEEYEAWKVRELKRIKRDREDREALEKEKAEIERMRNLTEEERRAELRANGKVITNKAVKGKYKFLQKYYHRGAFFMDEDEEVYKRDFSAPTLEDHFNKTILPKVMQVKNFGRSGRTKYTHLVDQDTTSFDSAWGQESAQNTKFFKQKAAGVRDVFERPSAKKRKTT
UniProt Q96HR3: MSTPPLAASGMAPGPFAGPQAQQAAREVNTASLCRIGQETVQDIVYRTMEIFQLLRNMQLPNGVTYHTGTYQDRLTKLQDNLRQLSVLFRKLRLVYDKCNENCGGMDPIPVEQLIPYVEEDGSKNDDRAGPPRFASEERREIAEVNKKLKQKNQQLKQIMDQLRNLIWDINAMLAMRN
UniProt Q86U44, whole entry, looked up: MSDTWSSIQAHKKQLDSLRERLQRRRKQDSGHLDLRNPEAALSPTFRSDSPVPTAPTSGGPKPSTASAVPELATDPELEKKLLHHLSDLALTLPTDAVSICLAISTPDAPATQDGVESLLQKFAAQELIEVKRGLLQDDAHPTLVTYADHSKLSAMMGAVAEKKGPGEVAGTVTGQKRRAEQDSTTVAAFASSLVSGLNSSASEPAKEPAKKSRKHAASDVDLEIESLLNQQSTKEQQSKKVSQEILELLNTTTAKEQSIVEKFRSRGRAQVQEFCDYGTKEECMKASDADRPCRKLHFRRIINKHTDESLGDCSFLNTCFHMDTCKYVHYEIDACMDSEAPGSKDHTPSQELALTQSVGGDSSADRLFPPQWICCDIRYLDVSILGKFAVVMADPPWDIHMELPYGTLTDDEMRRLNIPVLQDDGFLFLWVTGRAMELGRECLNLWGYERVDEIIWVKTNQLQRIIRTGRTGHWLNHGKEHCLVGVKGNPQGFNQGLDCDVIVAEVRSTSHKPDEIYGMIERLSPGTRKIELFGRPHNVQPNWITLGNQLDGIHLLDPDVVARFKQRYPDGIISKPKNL
UniProt Q14696: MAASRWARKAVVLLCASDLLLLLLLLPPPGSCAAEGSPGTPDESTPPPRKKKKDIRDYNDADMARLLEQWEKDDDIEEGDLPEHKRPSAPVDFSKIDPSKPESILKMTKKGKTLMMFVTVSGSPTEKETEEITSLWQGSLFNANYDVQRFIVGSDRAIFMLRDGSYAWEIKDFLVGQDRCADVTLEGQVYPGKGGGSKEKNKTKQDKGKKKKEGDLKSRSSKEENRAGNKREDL

The list shows a part of the results.

Compound in this test: C[C@H](C1=CC=C(C=C1)C(=O)NC2=C3C=CNC3=NC=C2)N
Nature of the test: log2 fold change, soluble protein after heating vs DMSO (PISA); higher = thermal stabilisation; K562 lysate, 10 uM; active = over 0.2 and 3.5 SD of the protein, either way, in both replicates (recomputed). In a few lines:
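Quantification was by TMTpro 16plex LC-MS/MS with equalised channel sums, applied to the supernatant after 21,000xg for 90 min. Samples were crude K562 extract at 1 mg/mL protein in PBS pH 7.4 with 1 mM MgCl2, treated with 10 μM compound for 30 min, heated for 3 min across 48°C-58°C, pooled and brought to 0.5% NP-40 at 4°C. Values are log-two fold changes in thermal stability relative to solvent controls, from duplicates.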
Turning to MCMBP (UniProt Q9BTE3), the log2 fold change was inactive: 0.048.

With MED20 (UniProt Q9H944), the log2 fold change is inactive: -0.11.

For the target METTL5 (UniProt Q9NRN9), the log2 fold change is inactive: 0.064.

In the case of MDH2 (UniProt P40926), the log2 fold change was inactive: 0.036.

With METTL14 (UniProt Q9HCE5), the log2 fold change is inactive: 0.171.

On to MECR (UniProt Q9BV79), for which the log2 fold change was inactive: -0.11.

For METAP1D (UniProt Q6UB28), the log2 fold change was inactive: 0.007.

For the target MEF2A (UniProt Q02078), the log2 fold change is inactive: -0.181.

As to MFSD10 (UniProt Q14728), the log2 fold change was inactive: -0.208.

As to MCL1 (UniProt Q07820), the log2 fold change is inactive: -0.26.

As for MCM6 (UniProt Q14566), the log2 fold change was inactive: -0.007.

For the target MED7 (UniProt O43513), the log2 fold change was inactive: 0.025.

Consider MFSD4B (UniProt Q5TF39), for which the log2 fold change is inactive: 0.027.

With ME2 (UniProt P23368), the log2 fold change was inactive: -0.006.

Take METTL2A (UniProt Q96IZ6): the log2 fold change was inactive: 0.056.

Regarding MFN2 (UniProt O95140), the log2 fold change was inactive: 0.009.

For the target MED8 isoform 2 (UniProt Q96G25), the log2 fold change is active: 0.269.

For the target MED4 (UniProt Q9NPJ6), the log2 fold change was inactive: -0.043.

METTL16 (UniProt Q86W50): the log2 fold change is inactive: 0.036.

For the target MEF2C isoform 5 (UniProt Q06413), the log2 fold change is inactive: -0.016.

Regarding MCUR1 (UniProt Q96AQ8), the log2 fold change is inactive: -0.042.

On to METAP2 (UniProt P50579), for which the log2 fold change was inactive: -0.041.

On to MBD3 (UniProt O95983), for which the log2 fold change is inactive: -0.046.

As to MBD2 (UniProt Q9UBB5), the log2 fold change is inactive: -0.035.

Regarding MED15 (UniProt Q96RN5), the log2 fold change is inactive: -0.002.

With MCFD2 (UniProt Q8NI22), the log2 fold change was inactive: 0.152.

Regarding MCM2 (UniProt P49736), the log2 fold change is inactive: -0.02.

With MEAF6 isoform 3 (UniProt Q9HAF1), the log2 fold change is inactive: -0.131.

Take ME3 (UniProt Q16798): the log2 fold change is inactive: -0.024.

As for MECP2 isoform 2 (UniProt P51608), the log2 fold change is inactive: -0.192.

As for MBOAT2 (UniProt Q6ZWT7), the log2 fold change is inactive: -0.175.

On to MCM4 (UniProt P33991), for which the log2 fold change was inactive: 0.029.

On to MEA1 (UniProt Q16626), for which the log2 fold change is inactive: -0.013.

Consider MFAP1 (UniProt P55081), for which the log2 fold change is inactive: -0.048.

Regarding MED30 (UniProt Q96HR3), the log2 fold change is inactive: -0.029.

In the case of METTL3 (UniProt Q86U44), the log2 fold change is inactive: -0.017.

Consider MCRIP1 (UniProt I3L4Q0), for which the log2 fold change was inactive: 0.01.

For the target MCRIP2 (UniProt Q9BUT9), the log2 fold change is inactive: 0.011.

Consider MEF2D (UniProt Q14814), for which the log2 fold change was inactive: -0.006.

MESD (UniProt Q14696): the log2 fold change is inactive: -0.075.
